# Experimental data published in US11957759B1, “Rapidly accelerated fibrosarcoma (RAF) degrading compounds and associated methods of use” (Arvinas Operations, Inc., priority 2022, dated 2024).
# Chains of the proteins cited; added tags and fusions are not shown.
# UniProt P15056, whole entry G466V: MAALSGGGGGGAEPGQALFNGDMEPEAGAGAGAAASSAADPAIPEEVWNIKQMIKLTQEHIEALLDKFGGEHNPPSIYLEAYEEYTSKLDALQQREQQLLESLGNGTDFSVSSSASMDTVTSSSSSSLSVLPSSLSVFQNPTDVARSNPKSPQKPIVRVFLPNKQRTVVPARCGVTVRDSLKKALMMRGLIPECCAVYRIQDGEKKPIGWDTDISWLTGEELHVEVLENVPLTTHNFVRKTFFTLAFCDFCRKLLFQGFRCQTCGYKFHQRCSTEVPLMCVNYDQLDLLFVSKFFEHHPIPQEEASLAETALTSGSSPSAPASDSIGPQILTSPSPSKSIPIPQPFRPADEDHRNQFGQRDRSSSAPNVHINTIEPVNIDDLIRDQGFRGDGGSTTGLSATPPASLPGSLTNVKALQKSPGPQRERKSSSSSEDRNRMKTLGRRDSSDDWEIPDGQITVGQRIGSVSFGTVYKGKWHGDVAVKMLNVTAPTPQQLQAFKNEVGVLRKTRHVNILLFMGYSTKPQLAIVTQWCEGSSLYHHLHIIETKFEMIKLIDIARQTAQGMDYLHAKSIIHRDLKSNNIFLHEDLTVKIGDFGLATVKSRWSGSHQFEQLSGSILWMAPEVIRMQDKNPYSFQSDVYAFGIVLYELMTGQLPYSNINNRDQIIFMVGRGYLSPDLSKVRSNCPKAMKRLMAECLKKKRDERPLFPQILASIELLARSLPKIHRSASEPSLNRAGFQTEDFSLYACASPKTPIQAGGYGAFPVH
# UniProt P15056, whole entry V600E: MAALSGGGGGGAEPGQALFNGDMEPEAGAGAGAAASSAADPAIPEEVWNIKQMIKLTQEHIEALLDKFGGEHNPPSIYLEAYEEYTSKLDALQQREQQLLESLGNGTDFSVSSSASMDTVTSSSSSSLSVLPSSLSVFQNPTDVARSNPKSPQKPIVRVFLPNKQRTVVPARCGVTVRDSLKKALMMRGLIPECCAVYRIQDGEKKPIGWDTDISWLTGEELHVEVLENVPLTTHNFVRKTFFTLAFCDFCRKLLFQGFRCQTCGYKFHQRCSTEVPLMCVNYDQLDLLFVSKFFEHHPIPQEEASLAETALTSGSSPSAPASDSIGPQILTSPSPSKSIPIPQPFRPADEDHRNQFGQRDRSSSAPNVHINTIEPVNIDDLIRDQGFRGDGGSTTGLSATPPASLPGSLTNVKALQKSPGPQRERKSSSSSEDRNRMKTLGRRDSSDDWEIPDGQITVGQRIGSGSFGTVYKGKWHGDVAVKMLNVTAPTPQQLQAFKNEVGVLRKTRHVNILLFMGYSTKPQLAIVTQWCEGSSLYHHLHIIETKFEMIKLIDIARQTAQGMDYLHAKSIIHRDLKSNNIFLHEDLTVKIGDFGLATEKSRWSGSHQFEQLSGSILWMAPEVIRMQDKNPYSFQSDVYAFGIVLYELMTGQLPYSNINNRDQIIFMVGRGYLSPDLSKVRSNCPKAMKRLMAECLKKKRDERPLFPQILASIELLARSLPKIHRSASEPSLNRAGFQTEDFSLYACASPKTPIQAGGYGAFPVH
# The match of structure and compound is tentative.
# Key:
# B-RAF V600E = B-RAF V600E (Homo sapiens, UniProt P15056, V600E); assay: Target protein degradation, assay C: T-Rex 293 cells, HA-BRAF_V600E, 384 well format; conditions: for B-RAF V600E DMax (%): T-Rex 293 HA-BRAF_V600E cells, 24 hours, Examples 83-269; for DC50: read-out: B-RAF V600E DC50, T-Rex 293 HA-BRAF_V600E cells, 24 hours, Examples 83-269
# Experimental: C. T-Rex 293 Cells (384 Well Format)
# (§1) T-Rex 293 cells were purchased from Invitrogen (#R71007), and stably transfected with a pcDNA4/TO_HA-BRAF_V600E construct, using 400 ug Zeocin for selection. V600E cells are plated in DMEM media (Gibco #11965118) containing 10% FBS (Gibco #16000044), 1% penicillin-streptomycin (ThermoFisher #15140122), 1:250 zeocin (Invitrogen #R-25005), and 1 ng/mL doxycycline (Selleckchem #4163) at a density of 7,500 cells/well in 45 μl on PDL coated, black clear bottom 384 well plates (Corning #354663) and incubated at 37° C.+5% CO2 for 24 hours. The following day, PROTAC compounds in a 1:3 11 point dilution are diluted into DMEM media using an Agilent Bravo. 5 ul of PROTACs suspended in DMEM media are added to the cells, with a final assay concentration ranging from 300 nM to 5 pM in 0.5% DMSO. Plates are incubated at 37° C.+5% CO2 for 24 hours. At the end of treatment, media is aspirated, and cells are fixed in 50 uL 4% PFA (EMS #15710) in PBS++(PBS, 1 mM CaCl, 1 mM MgCl) at RT for 15 minutes. Cells are washed 2× with 60 uL PBS++ and permeabilized in 50 uL 1% Triton X-100 (Sigma #93443) in PBS++ for 5 minutes at RT. Cells are washed in PBS++ prior to blocking with 50 uL Licor blocking buffer (Licor #927-60001) for 1 hour at RT. HA-tagged BRAF was stained using 50 uL HA antibody (CST #3724) at 1:1000 in Licor blocking buffer for two hours at RT. Primary is aspirated before adding 50 ul of secondary antibody solution containing 1:1000 Hoechst (ThermoFisher #62249), 1:1000 HCS CellMask Deep Red Stain (ThermoFisher #H32721), and 1:5000 goat anti-rabbit IgG Alexa-Fluor 488 (ThermoFisher #A32731) in PBS++ for 1 hr at RT. Plates are washed 4× with 60 uL PBS++, then sealed with Adhesive Black Light Absorbing Film (VWR #89087-692) and imaged on the ThermoFisher CX7 PRO high content instrument. BRAF intensity is quantified in HCS Studio software (ThermoFisher), using a custom script, exported, analyzed using KNIME, and curve curation is performed in an ELN (Scilligence). Cell toxicity is measured via comparing number of nuclei in PROTAC treated wells to DMSO controls.
# (§2) The concentration of an exemplary compound that leads to half maximal degradation (DC50) as well as the maximum degradation observed (Dmax, conventionally expressed as a percentage of control) is shown below in Table 2.
# B-RAF G466V = B-RAF G466V (Homo sapiens, UniProt P15056, G466V); assay: Target protein degradation, assay D: T-Rex 293 cells, HA-BRAF_G466V, 384 well format; conditions: for B-RAF G466V DMax (%): T-Rex 293 HA-BRAF_G466V cells, 24 hours, Examples 83-269; for DC50: read-out: B-RAF G466V DC50, T-Rex 293 HA-BRAF_G466V cells, 24 hours, Examples 83-269
# Experimental: D. T-Rex 293 Cells (384 Well Format)
# as §1, with “pcDNA4/TO_HA-BRAF_G466V” for “pcDNA4/TO_HA-BRAF_V600E”, “G466V” for “V600E”
# as §2
B-RAF V600E DMax (%) (B-RAF V600E),DC50 (B-RAF V600E),B-RAF G466V DMax (%) (B-RAF G466V),DC50 (B-RAF G466V),Compound
B (35 < B < 70),50 to 500 nM,B (35 < B < 70),10 to 30 nM,N#Cc1c(NS(=O)(=O)N2CC[C@@H](F)C2)ccc(F)c1Oc1ccc2ncn(-c3cccc(N4CCC(CN5CCN(c6ccc7c(c6)CN([C@H]6CCC(=O)NC6=O)C7=O)CC5)C4)c3)c(=O)c2c1 (some centres unmarked)
C (C ≤ 35),50 to 500 nM,B (35 < B < 70),1 to 10 nM,N#Cc1c(NS(=O)(=O)N2CC[C@@H](F)C2)ccc(F)c1Oc1ccc2ncn(-c3cccc(N4CCC(CN5CCC(c6ccc7c(c6)CN([C@H]6CCC(=O)NC6=O)C7=O)CC5)C4)c3)c(=O)c2c1 (some centres unmarked)
